For at least one entry, the source does not settle the construct or the ends of the probe. Tags and fusion partners may be left off the protein sequences shown.
What was measured:
[1] = target: T1, Har-POU (Helicoverpa armigera) (UniProt Q6R516); assay: EMSA; conditions: 4 mM MgCl2, poly(dI-dC), 10 mM HEPES-K+ pH 7.9, 10% glycerol, 50 mM KCl, 4 mM MgCl2, 1 mM DTT, 0.5 mg/ml BSA, 0.1 mM PMSF, 1 ug poly(dI-dC), 10 fmol probe in 20 ul, 27 C, 30 min, 5% native PAGE, protein translated in vitro, residues 1-351
T1 sequence (looked up): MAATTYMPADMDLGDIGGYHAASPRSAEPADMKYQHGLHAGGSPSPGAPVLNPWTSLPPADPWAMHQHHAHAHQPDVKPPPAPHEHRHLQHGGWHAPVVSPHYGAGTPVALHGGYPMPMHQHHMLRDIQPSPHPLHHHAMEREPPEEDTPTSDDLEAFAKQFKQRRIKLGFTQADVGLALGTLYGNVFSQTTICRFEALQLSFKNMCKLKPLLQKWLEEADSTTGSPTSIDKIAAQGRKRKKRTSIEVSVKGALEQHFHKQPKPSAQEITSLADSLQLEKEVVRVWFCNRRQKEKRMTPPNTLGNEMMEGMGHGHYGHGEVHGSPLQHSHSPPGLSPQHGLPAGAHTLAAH

[2] = target: T1, Har-POU (Helicoverpa armigera); assay: competition with a labelled probe; conditions: 40-fold unlabeled H1 competes; 10 mM HEPES-K+ pH 7.9, 10% glycerol, 50 mM KCl, 4 mM MgCl2, 1 mM DTT, 0.5 mg/ml BSA, 0.1 mM PMSF, 1 ug poly(dI-dC), 10 fmol probe in 20 ul, 27 C, 30 min; 5% native PAGE; protein translated in vitro; residues 1-351; label: 32P (unlabeled as competitor)

Sequence	binding result ([1]; label: 32P)	binding result ([1]; label: 32P (unlabeled as competitor))	binding result [2]
CCCCTCATTTACATACATCCCCGTCCGAC (double strand) [S1]	binds		
CTTGTATACATTGTTTGCACAAATGTTTG (double strand) [SA]	binds		
TCCCTGATTTACATAAGATTTCCATTCG (double strand) [H1]		binds	binds

Reference: publication PMC2672083
